# At least one compound was matched to its structure with a doubt left.
# System: KJL-2 cells
# Experiment: TNFα-induced firefly luciferase (FL) / Renilla luciferase (RL) reporter gene assay (DUAL-GLO) in vinblastin-treated, frozen and thawed KJL-2 cells
# Assay type: cell-based, human
# Settings: scavengers/chelators of reactive oxygen species, cells treated 10 minutes
# Method: The X-axis is TNFα, ng/ml.
# KJL-2 cells were used in all experiments (carried out to date). […] In order to reduce the formation of ice crystals and subsequent cell lysis, all experimental groups were frozen using the alcohol-free Biocison controlled freezing system that cools cells at approximately 1.0° C./minute.
structure (smiles),measurement,value
CC(=O)N(O)CCCCCNC(=O)CCC(=O)N(O)CCCCCNC(=O)CCC(=O)N(O)CCCCCN [deferoxamine],FL/RL ratio,without effect
